Assay results taken from publication PMC6328465.

Amino acid sequences for entries named in this document (tags omitted).
UniProt Q13574: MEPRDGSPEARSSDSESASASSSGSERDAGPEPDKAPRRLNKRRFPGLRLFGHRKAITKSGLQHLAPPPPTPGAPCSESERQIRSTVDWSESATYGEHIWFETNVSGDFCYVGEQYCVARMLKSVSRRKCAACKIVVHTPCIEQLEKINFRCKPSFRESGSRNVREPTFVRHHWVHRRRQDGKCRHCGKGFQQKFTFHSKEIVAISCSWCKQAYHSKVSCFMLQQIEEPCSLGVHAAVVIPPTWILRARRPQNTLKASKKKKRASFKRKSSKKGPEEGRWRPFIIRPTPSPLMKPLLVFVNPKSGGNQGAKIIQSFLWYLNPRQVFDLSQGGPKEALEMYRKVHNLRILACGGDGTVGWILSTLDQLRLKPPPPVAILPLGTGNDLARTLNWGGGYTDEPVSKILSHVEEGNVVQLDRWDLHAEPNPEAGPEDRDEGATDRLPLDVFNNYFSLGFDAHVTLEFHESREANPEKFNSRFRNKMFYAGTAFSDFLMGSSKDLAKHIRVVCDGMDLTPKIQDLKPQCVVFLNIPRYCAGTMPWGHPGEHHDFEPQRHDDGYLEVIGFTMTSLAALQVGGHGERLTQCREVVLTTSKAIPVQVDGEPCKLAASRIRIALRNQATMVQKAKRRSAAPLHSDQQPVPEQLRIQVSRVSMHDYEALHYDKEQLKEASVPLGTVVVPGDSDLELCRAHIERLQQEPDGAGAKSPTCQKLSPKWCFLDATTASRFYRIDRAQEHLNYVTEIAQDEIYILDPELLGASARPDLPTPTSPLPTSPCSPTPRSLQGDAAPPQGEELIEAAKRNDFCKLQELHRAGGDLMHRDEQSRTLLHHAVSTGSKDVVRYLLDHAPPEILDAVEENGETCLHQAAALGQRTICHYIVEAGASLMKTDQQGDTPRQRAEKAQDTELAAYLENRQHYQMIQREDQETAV
UniProt P27361: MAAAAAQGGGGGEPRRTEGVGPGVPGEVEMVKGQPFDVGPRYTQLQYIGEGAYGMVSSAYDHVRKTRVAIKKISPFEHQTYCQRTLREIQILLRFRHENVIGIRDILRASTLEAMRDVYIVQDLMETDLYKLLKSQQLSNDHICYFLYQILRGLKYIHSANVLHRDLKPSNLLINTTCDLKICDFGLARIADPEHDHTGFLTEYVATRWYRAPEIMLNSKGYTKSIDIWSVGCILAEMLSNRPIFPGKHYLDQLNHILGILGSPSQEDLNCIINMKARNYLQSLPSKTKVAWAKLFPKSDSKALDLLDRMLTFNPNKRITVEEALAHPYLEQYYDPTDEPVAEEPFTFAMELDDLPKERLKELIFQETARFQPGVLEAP
UniProt P28482: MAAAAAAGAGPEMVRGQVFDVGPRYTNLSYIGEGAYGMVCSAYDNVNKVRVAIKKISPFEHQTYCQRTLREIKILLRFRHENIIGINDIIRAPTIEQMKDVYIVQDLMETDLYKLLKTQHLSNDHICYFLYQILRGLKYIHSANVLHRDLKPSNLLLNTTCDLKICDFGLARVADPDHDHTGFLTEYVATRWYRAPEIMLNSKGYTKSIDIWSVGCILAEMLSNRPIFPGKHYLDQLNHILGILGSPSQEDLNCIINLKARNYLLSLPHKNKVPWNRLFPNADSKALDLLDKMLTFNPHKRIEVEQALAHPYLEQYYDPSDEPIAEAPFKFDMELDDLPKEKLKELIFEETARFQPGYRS

Molecular target: 3 × FLAG-DGKZ (diacylglycerol kinase zeta) (UniProt Q13574)
Test: affinity purification with mass spectrometry; 3xFLAG-DGKZ complex purified from stable HOS cells on anti-FLAG magnetic beads; SDS-PAGE bands absent from the control excised, in-gel trypsin digestion, LC-MS/MS (Q-Exactive)

binding | Substance
binds | ERK1 (from UniProt P27361 1-379) (enzyme)
binds | ERK2 (from UniProt P28482 1-360) (enzyme)

These are yes or no findings as the source states them, for the method shown. In cells and extracts the contact can be indirect. These calls come from enrichment with a bait or labelling near it, and not all partners need be listed.
